# Measurements taken from the supplement of paper PMC9135407.
# Values joined by “and” are separate entries in the source; they are usually repeats but may differ in a detail not shown here. Equal entries are not always repeated. Structures can show the parent of a compound that is named as a salt. ± gives the standard deviation of the averaged measurements. The list shows a part of the results. Plates or batches differ in their baseline, so values are only roughly comparable.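 Primary human stellate myofibroblasts activated in culture; inactivation shown by regained lipid droplets. Readout: fraction of Hoechst-counted cells exceeding a per-plate Bodipy threshold, duplicate wells, each plate with DMSO negative and nortriptyline positive controls. Hits: control-normalized score beyond the plate's top-tenth-percentile nortriptyline wells, or among its three best wells. Final well concentrations unstated.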
# System: primary human hepatic stellate cells (donor 1)
# Assay: percent Bodipy-positive cells; higher = more lipid droplet accumulation
# Conditions: 48 h
# [1] = library stock concentration: 10 mM
# [2] = library stock concentration: 3.33 mM
# [3] = library stock concentration: 6.3 mM
# [4] = library stock concentration: 1 mM
structure (smiles),measurement,setting,value
CCCC[P+](CCCC)(CCCC)Cc1ccc(NC(=O)C(Cc2ccc3ccccc3c2)NC(=NC2CCCCC2)NC2CCCCC2)cc1 (stereo not given),percent Bodipy-positive cells,[1],58.2 ± 9.6%
CCCCCCCCCCCCCCCC(=O)O[C@H](CC(=O)O)C[N+](C)(C)C,percent Bodipy-positive cells,[1],13.5 ± 4.3%
CN1CCN(c2ccc3nc(-c4c(N)c5c(F)cccc5[nH]c4=O)[nH]c3c2)CC1,percent Bodipy-positive cells,library stock concentration: 400 uM,90 ± 5.5%
same,percent Bodipy-positive cells,library stock concentration: 2 mM,96.78 ± 0.53%
same,percent Bodipy-positive cells,[1],96.2 ± 1.5%
CS(=O)(=O)c1ccc([C@@H](O)[C@@H](CF)NC(=O)C(Cl)Cl)cc1 [Florfenicol],percent Bodipy-positive cells,,6.47 ± 0.98%
same,percent Bodipy-positive cells,[2],8.76 ± 3%
same,percent Bodipy-positive cells,[1],25.5 ± 7.7%
CCN(CC)CCCC(C)Nc1ccnc2cc(Cl)ccc12 (stereo not given) [Chloroquine phosphate],percent Bodipy-positive cells,[3],25.7 ± 2.4%
CCN(CC)CCCC(C)Nc1ccnc2cc(Cl)ccc12 (stereo not given) [Chloroquine diphosphate],percent Bodipy-positive cells,,67.3 ± 6.4%
CC(=O)N[C@@H](CC(C)C)C(=O)N[C@@H](CC(C)C)C(=O)N[C@H](C=O)CCCNC(=N)N [Leupeptin Hemisulfate],percent Bodipy-positive cells,[2],30.2 ± 12%
same,percent Bodipy-positive cells,[1],30.6 ± 7.4%
CCCCCCCCCCCC(=O)c1nc2ncccc2o1,percent Bodipy-positive cells,[4],12 ± 4.1%
FCOC(C(F)(F)F)C(F)(F)F,percent Bodipy-positive cells,[1],32.3 ± 16%
O=C(COc1cccc2c(=O)[nH]ccc12)c1ccccc1,percent Bodipy-positive cells,[2],34.4 ± 11%
Cc1cccc(C)c1NC(=O)c1ccccc1C(=O)O,percent Bodipy-positive cells,[1],41 ± 24%
CCNC(=O)[C@H]1O[C@@H](n2cnc3c(N)nc(NCCc4ccc(CCC(=O)O)cc4)nc32)[C@H](O)[C@@H]1O,percent Bodipy-positive cells,[1],34.3 ± 5.3%
CNCCNS(=O)(=O)c1cccc2cnccc12 [H-8 dihydrochloride],percent Bodipy-positive cells,[1],44.7 ± 4%
"CNCCNS(=O)(=O)c1cccc2cnccc12 [H-8, Dihydrochloride]",percent Bodipy-positive cells,[2],14.2 ± 0.69%
O=C(CN=C(c1ccccc1)c1ccccc1)OCc1ccccc1 [N-(diphenylmethylene) Glycine benzyl ester],percent Bodipy-positive cells,[4],9.7 ± 0.17%
O=C(O)Cn1c(C(=O)Nc2nc(-c3ccccc3Cl)cs2)cc2ccccc21,percent Bodipy-positive cells,[1],5.22 ± 3%
C[C@](N)(Cc1ccc(O)cc1)C(=O)O [L-alpha-Methyl-p-tyrosine],percent Bodipy-positive cells,[1],59.6 ± 13%
CC(C)NCC(O)COc1cccc2ccccc12 (racemic) [Propranolol hydrochloride (+/-)],percent Bodipy-positive cells,library stock concentration: 6.8 mM,57.3 ± 8.3%
same,percent Bodipy-positive cells,[1],65.27 ± 0.12%
C[C@@H](O)[C@H]1C(=O)N2C(C(=O)O)=C(SCCNC=N)C[C@H]12 [Imipenem],percent Bodipy-positive cells,,28.1 ± 4.2%
same,percent Bodipy-positive cells,library stock concentration: 6.7 mM,9.09 ± 2.6%
C[C@@H](O)[C@H]1C(=O)N2C(C(=O)O)=C(SCCNC=N)C[C@H]12 [Imipenem monohydrate],percent Bodipy-positive cells,[1],35.2 ± 0.73%
CCCCN1C[C@H](O)[C@@H](O)[C@H](O)[C@H]1CO [Miglustat],percent Bodipy-positive cells,library stock concentration: 9.1 mM,6.6 ± 2.8%
O=C1NC(=O)C(c2cn(CCCO)c3ncccc23)=C1c1cnccn1 [GSK-3b Inhibitor XI],percent Bodipy-positive cells,[2],18.1 ± 3.5%
c1ccc2c(c1)CCCC2C1=NCCN1 (stereo not given) [Tetrahydrozoline HCl],percent Bodipy-positive cells,[2],6.96 ± 1.6%
same,percent Bodipy-positive cells,[1],32.7 ± 22%
c1ccc2c(c1)CCCC2C1=NCCN1 (stereo not given) [Tyzine],percent Bodipy-positive cells,[1],19.8 ± 2.3%
c1ccc2c(c1)CCCC2C1=NCCN1 (stereo not given) [Tetrahydrozoline hydrochloride],percent Bodipy-positive cells,,10.3 ± 1.9%
same,percent Bodipy-positive cells,[1],27.7% and 16.9%
CNc1ncnc2c1ncn2[C@@H]1O[C@H](CO)[C@@H](O)[C@H]1O [N6-methyladenosine],percent Bodipy-positive cells,,31.6 ± 2.8%
CNc1ncnc2c1ncn2[C@@H]1O[C@H](CO)[C@@H](O)[C@H]1O [N6-Methyladenosine],percent Bodipy-positive cells,[1],25.4 ± 8.6%
CNc1ncnc2c1ncn2[C@@H]1O[C@H](CO)[C@@H](O)[C@H]1O [N6-methyladenosine (m6A)],percent Bodipy-positive cells,[2],7.76 ± 1.4%
same,percent Bodipy-positive cells,[1],34.2 ± 20%
Cc1ncc([N+](=O)[O-])n1C,percent Bodipy-positive cells,[1],30.9 ± 1.1%
CC(C)OC(=O)C(C(=O)OC(C)C)=C1SC=CS1 [Malotilate],percent Bodipy-positive cells,[2],13.3 ± 4.5%
same,percent Bodipy-positive cells,[1],18 ± 13%
CCCCCC(O)C=CC1C2CC(CO2)C1CC=CCCCC(=O)O (stereo not given),percent Bodipy-positive cells,[4],23.8%
"OCC(O)CN1CCN(c2ccccc2)CC1 (racemic) [Dropropizine (R,S)]",percent Bodipy-positive cells,,24.1 ± 4.8%
O=C(c1ccc(F)cc1)C1CCN(CCCCc2ccccc2)CC1 [4-(4-Fluorobenzoyl)-1-(4-phenylbutyl)-piperidine oxalate],percent Bodipy-positive cells,[1],34.5 ± 6.4%
CC(C)(C)C(=O)OCOC(=O)[C@@H]1N2C(=O)[C@@H](/N=C/N3CCCCCC3)[C@H]2SC1(C)C [Pivmecillinam hydrochloride],percent Bodipy-positive cells,,9.45 ± 0.77%
CC/C=C\C/C=C\C/C=C\C/C=C\CCCCC(=O)O [Stearidonic Acid],percent Bodipy-positive cells,[4],6.98 ± 2.6%
N[C@@H](CC(=O)O)C(=O)O [L-Aspartic acid],percent Bodipy-positive cells,[1],42.7 ± 5%
CCN(CC)CCOc1ccc(C(=C(Cl)c2ccccc2)c2ccccc2)cc1.O=C(O)CC(O)(CC(=O)O)C(=O)O [Clomifene citrate],percent Bodipy-positive cells,[1],91.8 ± 3.5%
O=C1NCCN1c1ncc([N+](=O)[O-])s1 [Niridazole],percent Bodipy-positive cells,,27.8 ± 1.3%
C[Se]CC[C@H](N)C(=O)O,percent Bodipy-positive cells,[1],33.1 ± 8.4%
Nc1ncnc2c1ncn2[C@@H]1O[C@H](CO)C[C@@H]1O [3'-deoxydenosine],percent Bodipy-positive cells,[1],10.6 ± 2.8%
O=C(O)C1=C[C@@H](O)[C@@H](O)[C@H](O)C1 [Shikimic Acid],percent Bodipy-positive cells,[2],12.1 ± 13%
same,percent Bodipy-positive cells,[1],15.8 ± 5.9%
C1N2CN3CN1CN(C2)C3 [Methenamine],percent Bodipy-positive cells,[2],13.5 ± 8.9%
same,percent Bodipy-positive cells,[1],34% and 15.8%
same,percent Bodipy-positive cells,library stock concentration: 14.3 mM,4.25 ± 0.7%
CCCCCN(C)CCC(O)(P(=O)(O)O)P(=O)(O)O [Ibandronate],percent Bodipy-positive cells,[3],7.21 ± 1.3%
CCCCCN(C)CCC(O)(P(=O)(O)O)P(=O)(O)O [Ibandronate sodium],percent Bodipy-positive cells,[1],16.6 ± 0.87%
C=C(C)[C@@H]1CC[C@]2(C(=O)O)CC[C@]3(C)[C@H](CC[C@@H]4[C@@]5(C)CC[C@H](O)C(C)(C)[C@@H]5CC[C@]43C)[C@@H]12 [Betulinic acid],percent Bodipy-positive cells,,20.2 ± 6.9%
same,percent Bodipy-positive cells,[2],6.97 ± 2.6%
same,percent Bodipy-positive cells,[1],37.7 ± 2.2%
same,percent Bodipy-positive cells,library stock concentration: 10.9 mM,38.7 ± 11%
Nc1nnc(Sc2ncc([N+](=O)[O-])s2)s1,percent Bodipy-positive cells,[1],41.3 ± 0.85%
CN(C)c1cnccn1,percent Bodipy-positive cells,[1],32.3 ± 6.9%
"CCCCCCCC/C=C\C/C=C\C/C=C\CCCC(=O)NCCO [5(Z),8(Z),11(Z)-Eicosatrienoic Acid Ethanolamide]",percent Bodipy-positive cells,[4],11.5 ± 1.8%
CCCCCCCC/C=C\C/C=C\C/C=C\CCCC(=O)NCCO [Mead ethanolamide],percent Bodipy-positive cells,[4],7.35 ± 1.6%
CC1(C)CCC(NC(=O)[C@@H](N)CCC(=O)O)CC1,percent Bodipy-positive cells,[1],31.2 ± 1.7%
Cl.Cl.O=C(NCCCN1CCC2(CC1)OCc1ccccc12)[C@H]1CCCN1Cc1ccccc1,percent Bodipy-positive cells,[1],69.3 ± 11%
O=C(O)C(Cc1ccccc1[N+](=O)[O-])=NNc1nc(-c2ccc(Cl)c(Cl)c2)cs1,percent Bodipy-positive cells,[2],20.5 ± 1.1%
same,percent Bodipy-positive cells,[1],26.8 ± 12%

# Quoted at random: two records from the list.
structure (smiles),measurement,setting,value
c1ccc2c(c1)CCCC2C1=NCCN1 (stereo not given) [Tetrahydrozoline hydrochloride],percent Bodipy-positive cells,,10.3 ± 1.9%
C[C@@H](O)[C@H]1C(=O)N2C(C(=O)O)=C(SCCNC=N)C[C@H]12 [Imipenem monohydrate],percent Bodipy-positive cells,[1],35.2 ± 0.73%

# Exported tab-delimited: entries from further up
structure (smiles)	measurement	setting	value
C=C(C)[C@@H]1CC[C@]2(C(=O)O)CC[C@]3(C)[C@H](CC[C@@H]4[C@@]5(C)CC[C@H](O)C(C)(C)[C@@H]5CC[C@]43C)[C@@H]12 [Betulinic acid]	percent Bodipy-positive cells	[1]	37.7 ± 2.2%
same	percent Bodipy-positive cells	library stock concentration: 10.9 mM	38.7 ± 11%
Nc1nnc(Sc2ncc([N+](=O)[O-])s2)s1	percent Bodipy-positive cells	[1]	41.3 ± 0.85%
